Source: paper PMC3348897
Results are given in words; binding and its absence hold for the method and conditions named. Some entries that bind do so weakly or less than the wild type.

Amino acid sequences for entries named in this document (tags omitted).
UniProt P17027: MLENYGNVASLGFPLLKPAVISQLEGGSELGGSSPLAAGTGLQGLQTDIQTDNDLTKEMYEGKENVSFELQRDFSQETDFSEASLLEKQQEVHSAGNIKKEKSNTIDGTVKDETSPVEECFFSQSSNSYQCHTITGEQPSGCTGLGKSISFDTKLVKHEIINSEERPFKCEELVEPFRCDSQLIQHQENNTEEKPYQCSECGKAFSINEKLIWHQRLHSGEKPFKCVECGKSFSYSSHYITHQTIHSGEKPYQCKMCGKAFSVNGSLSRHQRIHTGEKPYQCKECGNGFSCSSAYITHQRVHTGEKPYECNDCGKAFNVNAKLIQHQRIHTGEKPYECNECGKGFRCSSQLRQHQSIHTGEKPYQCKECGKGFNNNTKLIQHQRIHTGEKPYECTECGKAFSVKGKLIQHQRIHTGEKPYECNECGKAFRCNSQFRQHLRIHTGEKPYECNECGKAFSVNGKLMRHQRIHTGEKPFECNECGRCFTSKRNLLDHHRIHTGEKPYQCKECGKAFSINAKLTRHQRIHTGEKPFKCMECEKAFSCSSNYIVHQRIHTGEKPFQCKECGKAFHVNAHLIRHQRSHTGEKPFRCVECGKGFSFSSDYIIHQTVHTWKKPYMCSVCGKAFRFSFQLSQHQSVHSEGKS

Molecular target: T1, acyl-CoA binding protein 6 (ACBD6) (human) (UniProt Q9BR61)
T1 sequence: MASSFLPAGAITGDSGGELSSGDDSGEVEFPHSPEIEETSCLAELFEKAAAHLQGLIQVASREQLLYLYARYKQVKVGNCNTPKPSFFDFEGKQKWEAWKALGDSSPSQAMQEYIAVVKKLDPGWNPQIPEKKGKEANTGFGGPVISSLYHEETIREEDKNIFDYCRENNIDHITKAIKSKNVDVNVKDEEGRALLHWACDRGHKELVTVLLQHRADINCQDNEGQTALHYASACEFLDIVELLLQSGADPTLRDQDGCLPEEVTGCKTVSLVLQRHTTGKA
Test: two-hybrid; yeast two hybrid system with ACBD6 as bait; unpublished observations, no methods given

binding: binds
Substance: zinc finger protein ZNF23 (from UniProt P17027 1-643)
